This is one part of the list.
Tests used:
Assay in all cases: log2 fold change, soluble protein after heating vs DMSO (PISA); higher = thermal stabilisation; K562 lysate, 10 uM; active = over 0.2 and 3.5 SD of the protein, either way, in both replicates (recomputed)
[1] = compound: C1=CC=C(C=C1)[C@H](COC2=CC3=C(C=C2)NC(=O)N3)NC(=O)C4=CC=CN(C4=O)CC5=CC(=C(C=C5)F)F
Outline: (§1)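 To prepare the extract, K562 pellets were dounce-homogenised in PBS pH 7.4 with 1 mM MgCl2, giving crude material at 1 mg/mL protein. This was treated with 10 μM compound for 30 min, then heated in aliquots for 3 min over 48°C-58°C before pooling and addition of NP-40 to 0.5% at 4°C. Centrifugation at 21,000xg for 90 min left soluble protein in the supernatant, which TMTpro 16plex LC-MS/MS quantified with equalised channel sums. Results are log-two fold changes in thermal stability compared with solvent controls, from duplicates.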

Amino acid sequences for entries named in this document (tags omitted). A change or cut given only in a name is not applied to a line headed by its entry.
UniProt Q9UBP9: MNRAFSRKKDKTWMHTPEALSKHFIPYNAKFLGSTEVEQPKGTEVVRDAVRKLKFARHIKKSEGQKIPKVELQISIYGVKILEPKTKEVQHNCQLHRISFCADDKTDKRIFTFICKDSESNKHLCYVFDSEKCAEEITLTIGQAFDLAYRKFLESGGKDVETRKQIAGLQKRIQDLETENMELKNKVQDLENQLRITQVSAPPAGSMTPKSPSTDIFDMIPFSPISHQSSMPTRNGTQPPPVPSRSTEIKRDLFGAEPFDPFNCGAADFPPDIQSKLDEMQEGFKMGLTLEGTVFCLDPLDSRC
UniProt Q8NEC7: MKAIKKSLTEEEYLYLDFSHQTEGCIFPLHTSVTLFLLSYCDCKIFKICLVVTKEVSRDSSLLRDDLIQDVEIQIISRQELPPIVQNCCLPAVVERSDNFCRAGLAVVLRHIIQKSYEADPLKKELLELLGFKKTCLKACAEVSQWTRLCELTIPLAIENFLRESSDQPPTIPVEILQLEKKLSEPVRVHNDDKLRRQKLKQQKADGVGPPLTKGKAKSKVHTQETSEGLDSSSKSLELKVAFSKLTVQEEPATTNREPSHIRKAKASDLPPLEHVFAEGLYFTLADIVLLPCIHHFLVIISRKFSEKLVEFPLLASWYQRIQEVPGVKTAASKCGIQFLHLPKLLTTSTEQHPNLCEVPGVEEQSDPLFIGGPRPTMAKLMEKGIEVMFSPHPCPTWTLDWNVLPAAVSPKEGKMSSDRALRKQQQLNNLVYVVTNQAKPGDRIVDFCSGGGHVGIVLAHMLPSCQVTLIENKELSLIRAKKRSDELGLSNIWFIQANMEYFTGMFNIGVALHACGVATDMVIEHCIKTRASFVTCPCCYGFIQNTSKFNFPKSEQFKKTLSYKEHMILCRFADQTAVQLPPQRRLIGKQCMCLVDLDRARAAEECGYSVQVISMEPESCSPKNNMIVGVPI
UniProt Q9BT25: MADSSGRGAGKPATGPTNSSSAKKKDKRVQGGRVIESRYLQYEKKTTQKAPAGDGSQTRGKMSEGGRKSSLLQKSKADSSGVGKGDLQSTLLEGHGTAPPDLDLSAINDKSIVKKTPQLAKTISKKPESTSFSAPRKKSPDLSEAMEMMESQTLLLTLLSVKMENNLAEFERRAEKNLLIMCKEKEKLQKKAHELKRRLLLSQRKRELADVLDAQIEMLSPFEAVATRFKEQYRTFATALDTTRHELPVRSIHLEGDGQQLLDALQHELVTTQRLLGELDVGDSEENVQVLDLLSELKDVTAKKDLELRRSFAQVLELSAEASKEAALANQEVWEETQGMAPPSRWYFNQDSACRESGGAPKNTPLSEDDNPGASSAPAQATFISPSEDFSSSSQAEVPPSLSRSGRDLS
UniProt P51858: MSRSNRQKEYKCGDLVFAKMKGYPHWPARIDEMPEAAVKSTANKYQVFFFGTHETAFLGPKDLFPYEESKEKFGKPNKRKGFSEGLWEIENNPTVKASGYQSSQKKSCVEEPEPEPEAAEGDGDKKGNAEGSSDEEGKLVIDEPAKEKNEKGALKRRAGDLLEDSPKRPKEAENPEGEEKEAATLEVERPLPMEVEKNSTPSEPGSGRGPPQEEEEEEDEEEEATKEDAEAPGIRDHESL
UniProt P02724: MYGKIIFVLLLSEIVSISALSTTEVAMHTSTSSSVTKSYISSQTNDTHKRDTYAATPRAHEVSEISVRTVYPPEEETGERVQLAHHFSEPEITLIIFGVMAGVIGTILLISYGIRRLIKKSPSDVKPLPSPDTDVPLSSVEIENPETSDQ
UniProt P15170, whole entry, looked up: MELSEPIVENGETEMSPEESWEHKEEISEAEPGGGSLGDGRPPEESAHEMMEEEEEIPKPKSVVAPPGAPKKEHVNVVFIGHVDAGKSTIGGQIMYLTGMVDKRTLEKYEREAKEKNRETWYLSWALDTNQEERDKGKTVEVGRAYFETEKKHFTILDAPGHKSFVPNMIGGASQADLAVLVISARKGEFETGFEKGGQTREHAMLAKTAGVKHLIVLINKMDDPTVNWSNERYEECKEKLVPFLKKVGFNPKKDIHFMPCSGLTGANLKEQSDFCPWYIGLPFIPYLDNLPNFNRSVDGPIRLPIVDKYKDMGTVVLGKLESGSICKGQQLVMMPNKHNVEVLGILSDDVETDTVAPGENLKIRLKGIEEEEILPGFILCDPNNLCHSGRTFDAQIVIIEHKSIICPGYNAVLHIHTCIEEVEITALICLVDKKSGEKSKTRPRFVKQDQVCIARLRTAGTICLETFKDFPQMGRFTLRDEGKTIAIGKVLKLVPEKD
UniProt O00178: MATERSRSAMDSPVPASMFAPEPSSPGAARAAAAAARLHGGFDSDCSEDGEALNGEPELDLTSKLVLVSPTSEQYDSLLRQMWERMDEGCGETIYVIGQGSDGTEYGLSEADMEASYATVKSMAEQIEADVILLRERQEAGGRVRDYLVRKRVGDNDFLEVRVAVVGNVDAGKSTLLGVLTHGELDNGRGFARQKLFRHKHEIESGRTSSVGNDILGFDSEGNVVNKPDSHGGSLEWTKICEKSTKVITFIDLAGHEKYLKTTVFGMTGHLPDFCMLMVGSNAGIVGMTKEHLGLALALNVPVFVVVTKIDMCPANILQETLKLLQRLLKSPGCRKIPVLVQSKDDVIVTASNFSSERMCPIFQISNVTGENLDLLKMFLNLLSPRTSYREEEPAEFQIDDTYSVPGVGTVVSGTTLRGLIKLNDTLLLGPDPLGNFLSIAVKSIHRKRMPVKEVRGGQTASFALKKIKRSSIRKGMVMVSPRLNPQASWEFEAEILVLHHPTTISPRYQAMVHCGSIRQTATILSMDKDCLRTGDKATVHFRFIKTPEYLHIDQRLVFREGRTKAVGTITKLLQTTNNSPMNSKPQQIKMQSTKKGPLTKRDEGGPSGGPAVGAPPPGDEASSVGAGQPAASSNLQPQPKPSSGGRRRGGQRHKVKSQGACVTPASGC
UniProt P49841: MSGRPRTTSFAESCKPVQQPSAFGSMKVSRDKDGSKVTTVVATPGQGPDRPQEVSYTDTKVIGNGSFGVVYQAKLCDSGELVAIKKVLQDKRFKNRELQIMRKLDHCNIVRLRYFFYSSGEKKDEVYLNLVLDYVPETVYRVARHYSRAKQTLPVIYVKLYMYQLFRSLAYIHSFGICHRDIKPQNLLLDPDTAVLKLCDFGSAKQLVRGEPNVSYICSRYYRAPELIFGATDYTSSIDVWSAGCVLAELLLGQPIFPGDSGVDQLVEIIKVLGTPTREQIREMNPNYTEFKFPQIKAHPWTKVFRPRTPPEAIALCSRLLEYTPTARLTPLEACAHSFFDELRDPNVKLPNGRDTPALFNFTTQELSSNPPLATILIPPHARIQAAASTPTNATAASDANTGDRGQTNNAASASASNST
UniProt P21266: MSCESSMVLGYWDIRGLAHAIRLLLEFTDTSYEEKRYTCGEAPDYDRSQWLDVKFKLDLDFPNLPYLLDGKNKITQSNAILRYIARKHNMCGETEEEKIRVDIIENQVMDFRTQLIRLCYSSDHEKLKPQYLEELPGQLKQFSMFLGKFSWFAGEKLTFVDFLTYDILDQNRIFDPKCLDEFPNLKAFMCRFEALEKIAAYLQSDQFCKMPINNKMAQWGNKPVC

[2] = compound: CC1=C(SC2=C1C(=N[C@H](C3=NN=C(N32)C)CC(=O)N)C4=CC=C(C=C4)Cl)C
Outline: as §1

[3] = compound: CC1=C2C(=CC=C1)N=C(N(C2=O)C3=CC=CC=C3C)CN4C=NC5=C(N=CN=C54)N
Outline: as §1

[4] = compound: Cc1sc2c(c1C)C(c1ccc(Cl)cc1)=N[C@@H](CC(=O)OC(C)(C)C)c1nnc(C)n1-2
Outline: as §1

[5] = compound: c1ccc([C@@H]2C[C@H]2NC2CCNCC2)cc1
Outline: as §1

Measured: log2 fold change

GULP1 (UniProt Q9UBP9)
inactive: [1] -0.003 | [2] -0.138 | [3] 0.057 | [4] -0.017 | [5] 0.028

GSTCD (UniProt Q8NEC7)
inactive: [1] -0.048 | [2] -0.048 | [3] -0.076 | [4] -0.055 | [5] 0.007

HAUS8 (UniProt Q9BT25)
inactive: [1] 0.016 | [2] -0.029 | [3] 0 | [4] 0.009 | [5] 0

HDGF (UniProt P51858)
inactive: [1] 0.021 | [2] -0.005 | [3] -0.008 | [4] -0.015 | [5] 0.02

GYPA (UniProt P02724)
inactive: [1] 0.071 | [2] -0.055 | [3] -0.002 | [4] 0.138 | [5] 0.236

GSPT1 isoform 3 (UniProt P15170)
inactive: [1] 0.004 | [2] 0.014 | [3] -0.001 | [4] 0.006 | [5] 0.019

GTPBP1 (UniProt O00178)
inactive: [1] 0.036 | [2] 0.048 | [3] 0.002 | [4] 0.011 | [5] -0.022

GSK3B isoform 2 (UniProt P49841)
inactive: [1] 0.036 | [2] -0.003 | [3] -0.042 | [4] 0.029 | [5] -0.074

GSTM3 (UniProt P21266)
inactive: [1] -0.102 | [2] -0.026 | [3] -0.014 | [4] 0.046 | [5] 0.052

Reference: the supplement of paper PMC10849652
